Laboratory results: the supplement of paper PMC2577665
± gives the standard deviation of the averaged measurements. The data scatter; read single values as rough.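 Every well combined ERalpha-negative HeLa cells, transfected ERalpha, a two-estrogen-response-element reporter, and overexpression of a single poorly characterized human cDNA. Any gene lowering the signal to at most the BRCA1 positive control level, about 0.6 of empty vector, was called a repressor hit.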

What follows are sequences tested on ERE-luciferase reporter with exogenous ERalpha in HeLa cells (assay: relative ERE luciferase activity (Firefly/Renilla) upon cDNA overexpression, relative to empty vector (fold of empty vector); higher = stronger ERalpha transactivation (less repression)). Conditions: 17beta-estradiol: 10 nM; 12 h.
For “MDGVTPTLSTIRGRTLESSTLHVTPRSLDRNKDQITNIFSGFAGLLAILLVVAVFCILWNWNKRKKRQVPYLRVTVMPLLTLPQTRQRAKNIYDILPWRQEDLGRHESRSMRIFSTESLLSRNSESPEHVPSQAGNAFQEHTAHIHATEYAVGIYDNAMVPQMCGNLTPSAHCINVRASRDCASISSEDSHDYVNVPTAEEIAETLASTKSPSRNLFVLPSTQKLEFTEERDEGCGDAGDCTSLYSPGAEDSDSLSNGEGSSQISNDYVNMTGLDLSAIQERQLWVAFQCCRDYENVPAADPSGSQQQAEKDVPSSNIGHVEDKTDDPGTHVQCVKRTFLASGDYADFQPFTQSEDSQMKHREEMSNEDSSDYENVLTAKLGGRDSEQGPGTQLLPDE [LAX1]”, the “relative ERE luciferase activity” value was 0.823.
“MDILKSEILRKRQLVEDRNLLVENKKYFKRSELAKKEEEAYFERCGYKIQPKEEDQKPLTSSNPVLELELAEEKLPMTLSRQEVIRRLRERGEPIRLFGETDYDAFQRLRKIEILTPEVNKGLRNDLKAALDKIDQQYLNEIVGGQEPGEEDTQNDLKVHEENTTIEELEALGESLGKGDDHKDMDIITKFLKFLLGVWAKELNAREDYVKRSVQGKLNSATQKQTESYLRPLFRKLRKRNLPADIKESITDIIKFMLQREYVKANDAYLQMAIGNAPWPIGVTMVGIHARTGREKIFSKHVAHVLNDETQRKYIQGLKRLMTICQKHFPTDPSKCVEYNAL [PRPF18]” was tested, and the “relative ERE luciferase activity” value was 1.11.
“MDKLKKVLSGQDTEDRSGLSEVVEASSLSWSTRIKGFIACFAIGILCSLLGTVLLWVPRKGLHLFAVFYTFGNIASIGSTIFLMGPVKQLKRMFEPTRLIATIMVLLCFALTLCSAFWWHNKGLALIFCILQSLALTWYSLSFIPFARDAVKKCFAVCLA [SFT2D2]” was tested, and the “relative ERE luciferase activity” value was 1.11.
“MDLLFGRRKTPEELLRQNQRALNRAMRELDRERQKLETQEKKIIADIKKMAKQGQMDAVRIMAKDLVRTRRYVRKFVLMRANIQAVSLKIQTLKSNNSMAQAMKGVTKAMGTMNRQLKLPQIQKIMMEFERQAEIMDMKEEMMNDAIDDAMGDEEDEEESDAVVSQVLDELGLSLTDELSNLPSTGGSLSVAAGGKKAEAAASALADADADLEERLKNLRRD [CHMP2A]” was tested, and the “relative ERE luciferase activity” value was 1.21.
In the case of “MDLSFMAAQLPMMGGAFMDSPNEDFSTEYSLFNSSANVHAAANGQGQPEDPPRSSNDAVLLWIAIIATLGNIVVVGVVYAFTF [C14orf132]”, the “relative ERE luciferase activity” value is reported as 0.93 ± 0.33.
For “MDPEVTLLLQCPGGGLPQEQIQAELSPAHDRRPLPGGDEAITAIWETRLKAQPWLFDAPKFRLHSATLAPIGSRGPQLLLRLGLTSYRDFLGTNWSSSAAWLRQQGATDWGDTQAYLADPLGVGAALATADDFLVFLRRSRQVAEAPGLVDVPGGHPEPQALCPGGSPQHQDLAGQLVVHELFSSVLQEICDEVNLPLLTLSQPLLLGIARNETSAGRASAEFYVQCSLTSEQVRKHYLSGGPEAHESTGIFFVETQNVQRLLETEMWAELCPSAKGAIILYNRVQGSPTGAALGSPALLPPL [NUDT22]”, the “relative ERE luciferase activity” value was 1.61.
With “MDPSLLRERELFKKRALSTPVVEKRSASSESSSSSSKKKKTKVEHGGSSGSKQNSDHSNGSFNLKALSGSSGYKFGVLAKIVNYMKTRHQRGDTHPLTLDEILDETQHLDIGLKQKQWLMTEALVNNPKIEVIDGKYAFKPKYNVRDKKALLRLLDQHDQRGLGGILLEDIEEALPNSQKAVKALGDQILFVNRPDKKKILFFNDKSCQFSVDEEFQKLWRSVTVDSMDEEKIEEYLKRQGISSMQESGPKKVAPIQRRKKPASQKKRRFKTHNEHLAGVLKDYSDITSSK [GTF2E2]” the “relative ERE luciferase activity” value was 0.763.
In the case of “MDQCVTVERELEKVLHKFSGYGQLCERGLEELIDYTGGLKHEILQSHGQDAELSGTLSLVLTQCCKRIKDTVQKLASDHKDIHSSVSRVGKAIDKNFDSDISSVGIDGCWQADSQRLLNEVMVEHFFRQGMLDVAEELCQESGLSVDPSQKEPFVELNRILEALKVRVLRPALEWAVSNREMLIAQNSSLEFKLHRLYFISLLMGGTTNQREALQYAKNFQPFALNHQKDIQVLMGSLVYLRQGIENSPYVHLLDANQWADICDIFTRDACALLGLSVESPLSVSFSAGCVALPALINIKAVIEQRQCTGVWNQKDELPIEVDLGKKCWYHSIFACPILRQQTTDNNPPMKLVCGHIISRDALNKMFNGSKLKCPYCPMEQSPGDAKQIFF [RMND5A]”, the “relative ERE luciferase activity” value is reported as 0.843.
“MDQKILSLAAEKTADKLQEFLQTLREGDLTNLLQNQAVKGKVAGALLRAIFKGSPCSEEAGTLRRRKIYTCCIQLVESGDLQKEIASEIIGLLMLEAHHFPGPLLVELANEFISAVREGSLVNGKSLELLPIILTALATKKENLAYGKGVLSGEECKKQLINTLCSGRWDQQYVIQLTSMFKDVPLTAEEVEFVVEKALSMFSKMNLQEIPPLVYQLLVLSSKGSRKSVLEGIIAFFSALDKQHNEEQSGDELLDVVTVPSGELRHVEGTIILHIVFAIKLDYELGRELVKHLKVGQQGDSNNNLSPFSIALLLSVTRIQRFQDQVLDLLKTSVVKSFKDLQLLQGSKFLQNLVPHRSYVSTMILEVVKNSVHSWDHVTQGLVELGFILMDSYGPKKVLDGKTIETSPSLSRMPNQHACKLGANILLETFKIHEMIRQEILEQVLNRVVTRASSPISHFLDLLSNIVMYAPLVLQSCSSKVTEAFDYLSFLPLQTVQRLLKAVQPLLKVSMSMRDCLILVLRKAMFANQLDARKSAVAGFLLLLKNFKVLGSLSSSQCSQSLSVSQVHVDVHSHYNSVANETFCLEIMDSLRRCLSQQADVRLMLYEGFYDVLRRNSQLANSVMQTLLSQLKQFYEPKPDLLPPLKLEACILTQGDKISLQEPLDYLLCCIQHCLAWYKNTVIPLQQGEEEEEEEEAFYEDLDDILESITNRMIKSELEDFELDKSADFSQSTSIGIKNNICAFLVMGVCEVLIEYNFSISSFSKNRFEDILSLFMCYKKLSDILNEKAGKAKTKMANKTSDSLLSMKFVSSLLTALFRDSIQSHQESLSVLRSSNEFMRYAVNVALQKVQQLKETGHVSGPDGQNPEKIFQNLCDITRVLLWRYTSIPTSVEESGKKEKGKSISLLCLEGLQKIFSAVQQFYQPKIQQFLRALDVTDKEGEEREDADVSVTQRTAFQIRQFQRSLLNLLSSQEEDFNSKEALLLVTVLTSLSKLLEPSSPQFVQMLSWTSKICKENSREDALFCKSLMNLLFSLHVSYKSPVILLRDLSQDIHGHLGDIDQDVEVEKTNHFAIVNLRTAAPTVCLLVLSQAEKVLEEVDWLITKLKGQVSQETLSEEASSQATLPNQPVEKAIIMQLGTLLTFFHELVQTALPSGSCVDTLLKDLCKMYTTLTALVRYYLQVCQSSGGIPKNMEKLVKLSGSHLTPLCYSFISYVQNKSKSLNYTGEKKEKPAAVATAMARVLRETKPIPNLIFAIEQYEKFLIHLSKKSKVNLMQHMKLSTSRDFKIKGNILDMVLREDGEDENEEGTASEHGGQNKEPAKKKRKK [FANCI]” was tested, and the “relative ERE luciferase activity” value was 1.06 ± 0.19.
For “MDRGSLLPFQLWCPRPFGTYSQNQPRPPSAALKPSACPEPGGGAEPDHGPAHSENTPPALATEVPASQPAPLLSAAAAGDEGRVLLDTWYVIKPGNTKEKVAFFVAHQCGGGSRASSMKVKGHWGSDSSKAKRRRRCLDPTKAPPDPGGREGPPAAEEGPASAGEDVDLLSVAEMVALVEQRAALALQSYPRPTTPAPVVFVSAEQGGPAKGVGSERRSGGGDCSRVAEAVAHFEAQRDSPPTKGLRKEERPGPGPGEVRIAFRISNGREPRAPDSGLPSGGGGRPGCAYPGSPGPGARAKDKITCDLYQLISPSRDALPSNVEFLLARADEASEGDSPAPARPEDTPPAPPPPPARDCGASGFHVDVVVTGVVDECIFFGKDGTKNVKEETVCLTVSPEEPPPPGQLFFLQNRGPDGPPEPPPADSPATAPGPDDAEGTADTSLCRLYRHVSHDFLEIRFKIQRLLEPRQYMLLLPEHVLVKIFSFLPTRALAALKCTCHHFKGIIEAFGVRATDSRWSRDPLYRDDPCKQCRKRYEKGDVSLCRWHPKPYHHDLPYGRSYWMCCRRADRETPGCRLGLHDNNWVLPCNGPGGGRAGREEGR [FBXO46]”, the “relative ERE luciferase activity” value was 1.1.
In the case of “MDRTLESLRHIIAQVLPHRDPALVFKDLNVVSMLQEFWESKQQQKAAFPSEGVVVYESLPAPGPPFVSYVTLPGGSCFGNFQCCLSRAEARRDAAKVALINSLFNELPSRRITKEFIMESVQEAVASTSGTLDDADDPSTSVGAYHYMLESNMGKTMLEFQELMTIFQLLHWNGSLKALRETKCSRQEVISYYSQYSLDEKMRSHMALDWIMKERDSPGIVSQELRMALRQLEEARKAGQELRFYKEKKEILSLALTQICSDPDTSSPSDDQLSLTALCGYH [LIX1]”, the “relative ERE luciferase activity” value is reported as 1.16.
For “MDSKYQCVKLNDGHFMPVLGFGTYAPAEVPKSKALEATKLAIEAGFRHIDSAHLYNNEEQVGLAIRSKIADGSVKREDIFYTSKLWCNSHRPELVRPALERSLKNLQLDYVDLYLIHFPVSVKPGEEVIPKDENGKILFDTVDLCATWEAVEKCKDAGLAKSIGVSNFNRRQLEMILNKPGLKYKPVCNQVECHPYFNQRKLLDFCKSKDIVLVAYSALGSHREEPWVDPNSPVLLEDPVLCALAKKHKRTPALIALRYQLQRGVVVLAKSYNEQRIRQNVQVFEFQLTSEEMKAIDGLNRNVRYLTLDIFAGPPNYPFSDEY [AKR1C1]”, the “relative ERE luciferase activity” value was 1.06.
With “MDSPSSVSSYSSYSLSSSFPTSPVNSDFGFPSDSEREDKGAHGPRPDTVGQRGGSRPSPGPIRCRHRSKVSGNQHTPSHPKQRGSASPMAGSGAKRSRDGELETSLNTQGCTTEGDLLFAQKCKELQGFIPPLTDLLNGLKMGRFERGLSSFQQSVAMDRIQRIVGVLQKPQMGERYLGTLLQVEGMLKTWFPQIAAQKSSLGGGKHQLTKHFPSHHSDSAASSPASPMEKMDQTQLGHLALKPKQPWHLTQWPAMNLTWIHTTPICNPPLSSPGTISFSHGPLGTGTGIGVILFLQHGVQPFTHSAPTTPVPPTTASPVIPGEPMKLSGEGPRCYSLPVTLPSDWSYTLSPPSLPTLARKMTIGHREQQRSHPPVAADAHLLNL [C1orf51]” the “relative ERE luciferase activity” value was 1.03.
For “MDSPWDELALAFSRTSMFPFFDIAHYLVSVMAVKRQPGAAALAWKNPISSWFTAMLHCFGGGILSCLLLAEPPLKFLANHTNILLASSIWYITFFCPHDLVSQGYSYLPVQLLASGMKEVTRTWKIVGGVTHANSYYKNGWIVMIAIGWARGAGGTIITNFERLVKGDWKPEGDEWLKMSYPAKVTLLGSVIFTFQHTQHLAISKHNLMFLYTIFIVATKITMMTTQTSTMTFAPFEDTLSWMLFGWQQPFSSCEKKSEAKSPSNGVGSLASKPVDVASDNVKKKHTKKNE [TMEM38B]”, the “relative ERE luciferase activity” value was 1.07.
For “MDSRLQEIRERQKLRRQLLAQQLGAESADSIGAVLNSKDEQREIAETRETCRASYDTSAPNAKRKYLDEGETDEDKMEEYKDELEMQQDEENLPYEEEIYKDSSTFLKGTQSLNPHNDYCQHFVDTGHRPQNFIRDVGLADRFEEYPKLRELIRLKDELIAKSNTPPMYLQADIEAFDIRELTPKFDVILLEPPLEEYYRETGITANEKCWTWDDIMKLEIDEIAAPRSFIFLWCGSGEGLDLGRVCLRKWGYRRCEDICWIKTNKNNPGKTKTLDPKAVFQRTKEHCLMGIKGTVKRSTDGDFIHANVDIDLIITEEPEIGNIEKPVEIFHIIEHFCLGRRRLHLFGRDSTIRPGWLTVGPTLTNSNYNAETYASYFSAPNSYLTGCTEEIERLRPKSPPPKSKSDRGGGAPRGGGRGGTSAGRGRERNRSNFRGERGGFRGGRGGAHRGGFPPR [KIAA1627]”, the “relative ERE luciferase activity” value was 1 ± 0.14.
